No constants are given. Whether binding was seen depends on the method and setting. Some results given as binding are weak or reduced against the parent protein; the word gives no strength.
B1: TPP-2309 (antibody, human IgG2, lambda, V domains shown)
VH: EVQLLESGGGLVQPGGSLRLSCAASGFTFSSYWMSWVRQAPGKGLEWVSGVSWGGSRTHYADSVKGRFTISRDNSKNTLYLQMNSLRAEDTAVYYCALTGRSGWMRFPNWFDPWGQGTLVTVSS
VL: QSVLTQPPSVSGAPGQRVTISCTGSSSNIGAAYDVHWYQQLPGTAPKLLIYGNNKRPSGVPDRFSGSKSGTSASLAITGLQAEDEADYYCQSYDSSLSGSVFGGGTKLTVLG
B2: Variant 2310 (modified C25K23 IgG) (antibody, V domains shown)
VH: EVQLLESGGGLVQPGGSLRLSCAASGFTFSSYWMSWVRQAPGKGLEWVSGVSWQGSRTHYADSVKGRFTISRDNSKNTLYLQMNSLRAEDTAVYYCALTGRSGWMRFPNWFDPWGQGTLVTVSS
VL: QSVLTQPPSVSGAPGQRVTISCTGSSSNIGAAYDVHWYQQLPGTAPKLLIYGNNKRPSGVPDRFSGSKSGTSASLAITGLQAEDEADYYCQSYDSSLSGSVFGGGTKLTVLG
B3: Variant 2312 (modified C25K23 IgG) (antibody, V domains shown)
VH: EVQLLESGGGLVQPGGSLRLSCAASGFTFSSYWMSWVRQAPGKGLEWVSGVSWNGARTHYADSVKGRFTISRDNSKNTLYLQMNSLRAEDTAVYYCALTGRSGWMRFPNWFDPWGQGTLVTVSS
VL: QSVLTQPPSVSGAPGQRVTISCTGSSSNIGAAYDVHWYQQLPGTAPKLLIYGNNKRPSGVPDRFSGSKSGTSASLAITGLQAEDEADYYCQSYDSSLSGSVFGGGTKLTVLG
B4: C25K23 Fab (Fab, V domains shown)
VH: EVQLLESGGGLVQPGGSLRLSCAASGFTFSSYWMSWVRQAPGKGLEWVSGVSWNGSRTHYADSVKGRFTISRDNSKNTLYLQMNSLRAEDTAVYYCALTGRSGWMRFPNWFDPWGQGTLVTVTS
VL: QSVLTQPPSASGTPGQRVTISCTGSSSNIGAAYDVHWYQQLPGTAPKLLIYGNNKRPSGVPDRFSGSKSGTSASLAISGLRSEDEADYYCQSYDSSLSGSVFGGGTKLTVLG
notes: Human Fab (lambda) from a phage library, expressed in E. coli; also called Fab C25K23
B5: T46J23 Fab (Fab, V domains shown)
VH: EVQLLESGGGLVQPGGSLRLSCAASGFTFGNHWMTWVRQAPGKGLEWVSGVSWNGSRTHYADSVKGRFTISRDNSKNTLYLQMNSLRAEDTAVYYCALTGRSGWMRFPNWFDPWGQGTLVTVTS
VL: LTQPPSASGTPGQRVTISCTGTSSNIGAGYDVHWYQQLPGTAPKLLIYDNNNRPSGVPDRFSGSKSGTSASLAISGLRSEDEADYYCAAWDDSLNGVVFGGGTKLTVLG
notes: Human Fab (lambda), expressed in E. coli

Protein sequences, listed by entry. Tags and fused reporters are not part of them. Lines headed by an entry give the natural chain unless they say otherwise; changes in a name come on top.
UniProt P04070: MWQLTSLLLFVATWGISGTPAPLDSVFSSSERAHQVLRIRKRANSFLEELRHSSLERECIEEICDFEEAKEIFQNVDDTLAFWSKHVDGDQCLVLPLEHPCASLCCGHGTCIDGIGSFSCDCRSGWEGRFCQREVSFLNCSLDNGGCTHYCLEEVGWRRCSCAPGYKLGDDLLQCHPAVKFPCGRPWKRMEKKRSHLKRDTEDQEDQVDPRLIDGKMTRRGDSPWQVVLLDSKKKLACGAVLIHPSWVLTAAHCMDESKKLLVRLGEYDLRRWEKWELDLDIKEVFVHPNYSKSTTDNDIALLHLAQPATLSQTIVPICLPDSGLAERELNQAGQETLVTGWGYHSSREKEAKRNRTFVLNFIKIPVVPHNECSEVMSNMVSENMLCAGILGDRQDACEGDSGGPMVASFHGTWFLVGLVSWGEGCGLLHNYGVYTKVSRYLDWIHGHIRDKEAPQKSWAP

Legend:
[1] = biological target: human activated Protein C (human) (UniProt P04070); assay: titration on hAPC, MeanValue against concentration, 4-parameter fit [a]
[2] = biological target: plasma-derived human aPC-Gla-domain-less (human) (UniProt P04070); assay: ELISA
[3] = biological target: plasma-derived human aPC-Gla-domain-less (human) (UniProt P04070); assay: complex formation, gel filtration and SDS-PAGE

Binder	binding [1]	binding [2]	binding [3]
B1	binds	–	–
B2	binds	–	–
B3	binds	–	–
B4	–	binds	binds
B5	–	binds	–

— US20150307625A1 (Bayer, published 2015)
